Paper PMC7790283
Results are given in words; binding and its absence hold for the method and conditions named. In cells and extracts the contact can be indirect. Some results given as binding are weak or reduced against the parent protein; the word gives no strength.

T1: CCCTC-binding factor (CTCF) (human (endogenous in HMECs)) (UniProt P49711)
T1 sequence: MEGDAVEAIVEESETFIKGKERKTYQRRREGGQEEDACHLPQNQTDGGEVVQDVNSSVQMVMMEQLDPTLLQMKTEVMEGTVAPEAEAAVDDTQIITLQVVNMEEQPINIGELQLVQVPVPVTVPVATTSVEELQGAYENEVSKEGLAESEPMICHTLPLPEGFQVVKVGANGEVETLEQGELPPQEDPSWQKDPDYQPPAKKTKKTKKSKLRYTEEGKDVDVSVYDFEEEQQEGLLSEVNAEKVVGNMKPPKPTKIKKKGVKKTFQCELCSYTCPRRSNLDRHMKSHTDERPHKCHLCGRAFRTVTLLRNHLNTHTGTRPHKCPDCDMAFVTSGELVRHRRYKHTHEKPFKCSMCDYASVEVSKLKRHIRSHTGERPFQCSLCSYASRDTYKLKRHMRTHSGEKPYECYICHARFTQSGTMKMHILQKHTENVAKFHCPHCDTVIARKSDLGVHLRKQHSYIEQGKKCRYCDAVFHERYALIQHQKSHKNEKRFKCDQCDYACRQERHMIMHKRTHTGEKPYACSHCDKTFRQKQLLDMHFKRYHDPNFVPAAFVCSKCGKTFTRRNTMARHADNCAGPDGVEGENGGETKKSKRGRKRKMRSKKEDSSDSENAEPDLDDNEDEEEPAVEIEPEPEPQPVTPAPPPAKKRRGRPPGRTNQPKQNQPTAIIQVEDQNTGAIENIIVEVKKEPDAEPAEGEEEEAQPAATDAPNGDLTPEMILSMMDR


What was measured:
[1] = target: T1, CCCTC-binding factor (CTCF) (human (endogenous in HMECs)); experiment: co-IP; as the co-IP of untreated HMECs, but from H2O2-treated (stressed) HMECs; CTCF IP, Western blot for SC-35
[2] = target: hnRNP-K (human (endogenous in HMECs)) (UniProt P61978); experiment: co-IP; endogenous proteins of HMEC whole cell extract (lysis buffer with 420 mM NaCl, diluted 6X with IP buffer: 20 mM Tris HCl pH 7.5, 50 mM NaCl, 10 mM MgCl2, 2 mM EDTA, 0.5% Triton-X-100); protein-G Sepharose beads, 4°C; Western blot; untreated cells
[3] = target: T1, CCCTC-binding factor (CTCF) (human (endogenous in HMECs)); experiment: as above

binding [2] | binding [3] | Binder | binding [1]
binds | binds | Serine/arginine-rich splicing factor SC-35 (protein, UniProt Q01130 1-221) MSYGRPPPDVEGMTSLKVDNLTYRTSPDTLRRVFEKYGRVGDVYIPRDRYTKESRGFAFVRFHDKRDAEDAMDAMDGAVLDGRELRVQMARYGRPPDSHHSRRGPPPRRYGGGGYGRRSRSPRRRRRSRSRSRSRSRSRSRSRYSRSKSRSRTRSRSRSTSKSRSARRSKSKSSSVSRSRSRSRSRSRSRSPPPVSKRESKSRSRSKSPPKSPEEEGAVSS | no binding (condition: H2O2-treated cells)
binds weakly |  | CCCTC-binding factor (CTCF) (protein, UniProt P49711 1-727) MEGDAVEAIVEESETFIKGKERKTYQRRREGGQEEDACHLPQNQTDGGEVVQDVNSSVQMVMMEQLDPTLLQMKTEVMEGTVAPEAEAAVDDTQIITLQVVNMEEQPINIGELQLVQVPVPVTVPVATTSVEELQGAYENEVSKEGLAESEPMICHTLPLPEGFQVVKVGANGEVETLEQGELPPQEDPSWQKDPDYQPPAKKTKKTKKSKLRYTEEGKDVDVSVYDFEEEQQEGLLSEVNAEKVVGNMKPPKPTKIKKKGVKKTFQCELCSYTCPRRSNLDRHMKSHTDERPHKCHLCGRAFRTVTLLRNHLNTHTGTRPHKCPDCDMAFVTSGELVRHRRYKHTHEKPFKCSMCDYASVEVSKLKRHIRSHTGERPFQCSLCSYASRDTYKLKRHMRTHSGEKPYECYICHARFTQSGTMKMHILQKHTENVAKFHCPHCDTVIARKSDLGVHLRKQHSYIEQGKKCRYCDAVFHERYALIQHQKSHKNEKRFKCDQCDYACRQERHMIMHKRTHTGEKPYACSHCDKTFRQKQLLDMHFKRYHDPNFVPAAFVCSKCGKTFTRRNTMARHADNCAGPDGVEGENGGETKKSKRGRKRKMRSKKEDSSDSENAEPDLDDNEDEEEPAVEIEPEPEPQPVTPAPPPAKKRRGRPPGRTNQPKQNQPTAIIQVEDQNTGAIENIIVEVKKEPDAEPAEGEEEEAQPAATDAPNGDLTPEMILSMMDR | 
